Experimental data taken from article PMC9501633, “Synthesis, Characterisation and Mechanism of Action of Anticancer 3-Fluoroazetidin-2-ones” (Pharmaceuticals, 2022).

system: NCI 60 cell line panel; assay: NCI COMPARE analysis; details: Standard COMPARE, NCI synthetic database, GI50 mean graph

| Compound | Correlation Coefficient with seed compound 33 |
| --- | --- |
| COc1cc([C@H](C)c2ccc3ccccc3c2)cc(OC)c1OC [Compound 791945] | 0.75 |
| CCC1=C[C@H]2CN(CCc3c([nH]c4ccccc34)[C@@](C(=O)OC)(c3cc4c(cc3OC)N(C)[C@H]3[C@@](O)(C(=O)OC)[C@H](OC(C)=O)[C@]5(CC)[C@@H]6C[C@@H]6CN6CC[C@]43[C@@H]65)C2)C1 [Compound 791526] | 0.81 |
| COc1ccc(C(C)c2cc(OC)c(OC)c(OC)c2)cc1 (stereo not drawn) [Compound 791946] | 0.85 |
| COc1cccc2cc(N(C)c3nc(C)nc4c3CCC4)ccc12 [Compound 782361] | 0.78 |
| CCOc1ccccc1C(=O)N1CCN(c2cc(Cl)cc(Cl)c2)CC1 [Compound 794223] | 0.83 |
| O=C(N/N=C/c1ccc(Cl)cc1)c1[nH]c2ccc(Cl)cc2c1-c1ccccc1 [Compound 747379] | 0.76 |
| COc1ccc(C2C(c3ccccc3)C(=O)N2c2cc(OC)c(OC)c(OC)c2)cc1I (stereo not drawn) [Compound 792957] | 0.83 |
| COc1cc(-n2cncc2-c2ccc3ccccc3c2)cc(OC)c1OC [Compound 736992] | 0.79 |
| COC(=O)c1ccc2c(c1)CCN2C(=O)c1cc2c(cc1Br)OCO2 [Compound 705323] | 0.80 |
| CCn1cc(/C=C2\Oc3cc(OCC#N)ccc3C2=O)c2cc(OC)ccc21 [Compound 794639] | 0.76 |
| CCOC(=O)c1cc(C(=O)c2cc(OC)c(OC)c(OC)c2)n2nc(C)ccc12 [Compound 792769] | 0.83 |
| CCSc1ccc(C2C(Br)C(=O)N2c2cc(OC)c(OC)c(OC)c2)cc1 (stereo not drawn) [Compound 792961] | 0.76 |
| Cc1ccc2c(C3C(C#N)=C(N)Oc4cc5ccccc5cc43)cc(=O)oc2c1 (stereo not drawn) [Compound 794658] | 0.76 |
| N#CC1=C(N)Oc2c(ccc3ccccc23)C1c1cc(=O)oc2ccc(Cl)cc12 (stereo not drawn) [Compound 794655] | 0.78 |
| COc1cc(OC)c(/C=C/S(=O)(=O)Cc2ccc(OC)c(N)n2)c(OC)c1 [Compound 782882] | 0.80 |
| COc1ccc(-c2noc(C(=O)O)c2-c2cc(OC)c(OC)c(OC)c2)cc1 [Compound 799732] | 0.81 |
| COc1cc(C(C)c2ccc3c(ccn3C)c2)cc(OC)c1OC (stereo not drawn) [Compound 791947] | 0.84 |
| COc1cc([C@@H]2c3cc4c(cc3[C@H](OC(C)=O)[C@H]3COC(=O)[C@@H]23)OCO4)cc(OC)c1OC [Compound 31708] | 0.80 |
